Record: PubChem BioAssay AID743121 (NCATS, 2013)
Purpose: 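Partners whose loss is lethal together with topoisomerase I blockade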 (primary screen). Cells: MDA-MB-231 cells, a human breast cancer line. Reagents: single siRNA against human genes, 20 nM siRNA (0.8 pmol per well). Timing: 120 h (drug added 48 h after transfection, read 72 h later). Challenge: camptothecin 20 nM (about EC30) for 72 h; vehicle 0.1% DMSO in parallel plates. Detection: 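Cell viability by ATP luminescence (CellTiter-Glo) as % of non-targeting siRNA wells, and the log2 ratio of viability without drug over viability with camptothecin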. Scale: log2 vehicle/camptothecin viability: higher = stronger sensitisation to camptothecin; viability with camptothecin and viability without drug: higher = more viable cells. Hit rule: 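Each gene scored by redundant siRNA activity (RSA) over its individual siRNA ratios; a gene is called active at p < 0.001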.
The deposit covers about 26,000 reagents; this is a random part of them. Over the whole deposit, 167 (0.63%) were called active. 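Calls are per gene from RSA p-values that are not deposited; an individual active-marked siRNA can sensitise only weakly.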 No sequences are given here.

no.	gene symbol	PubChem SID	log2 vehicle/camptothecin viability	viability with camptothecin (% of control)	viability without drug (% of control)	Outcome
1	HNF4G	SID164369400	-0.127	104	95.1	inactive
2	HNF4G	SID164369402	0.632	50.9	78.9	inactive
3	HNF4G	SID164369403	-0.335	81	64.2	inactive
4	HNF4G	SID164369404	-0.644	47.4	30.3	inactive
5	MPND	SID164547599	-0.329	72.7	57.8	inactive
6	MPND	SID164547600	0.156	56.3	62.7	inactive
7	MPND	SID164547601	-0.00431	49	48.9	inactive
8	HMGCS2	SID164369305	-0.103	84.4	78.6	inactive
9	HMGCS2	SID164369307	0.898	60.2	112	inactive
10	HMGCS2	SID164369309	-0.114	109	101	inactive
11	HMGCS2	SID164369310	0.296	82.1	101	inactive
12	LRRK1	SID164532762	-0.191	100	87.8	inactive
13	LRRK1	SID164532763	-0.053	97.2	93.7	inactive
14	LRRK1	SID164532767	-0.596	106	69.9	inactive
15	LRRK1	SID164532768	-0.217	138	119	inactive
16	RAMP3	SID164409941	-0.382	63.5	48.7	inactive
17	RAMP3	SID164409943	-0.236	77.5	65.8	inactive
18	RAMP3	SID164409945	-0.104	77.2	71.8	inactive
19	RAMP3	SID164409946	-0.0612	79.2	75.9	inactive
20	PLA2G3	SID164469710	-0.538	65	44.7	inactive
21	PLA2G3	SID164469712	0.669	56.6	90.1	inactive
22	PLA2G3	SID164469713	-0.0233	47.9	47.2	inactive
23	PLA2G3	SID164469715	-0.245	35.6	30	inactive
24	F10	SID164364112	-0.275	74.1	61.2	inactive
25	F10	SID164364114	-0.106	99.7	92.6	inactive
26	F10	SID164364115	-0.401	103	78.3	inactive
27	IREB2	SID164371805	-0.0535	112	108	inactive
28	IREB2	SID164371808	-0.0341	116	113	inactive
29	IREB2	SID164371809	-0.408	92.1	69.4	inactive
30	PRKAA2	SID164382471	-0.191	119	104	inactive
31	PRKAA2	SID164382474	-0.241	113	95.6	inactive
32	PRKAA2	SID164382475	-0.175	111	98.3	inactive
33	PRKAA2	SID164382476	-0.167	126	112	inactive
34	AGO2	SID164462757	-0.135	109	99	inactive
35	AGO2	SID164462758	-0.00622	89.6	89.2	inactive
36	AGO2	SID164462759	-0.21	108	93.4	inactive
37	AGO2	SID164462760	0.161	103	115	inactive
38	PAX7	SID164379525	-0.236	82.9	70.3	inactive
39	PAX7	SID164379528	0.17	90.8	102	inactive
40	PAX7	SID164379531	-0.262	65.6	54.7	inactive
41	PAX7	SID164379534	-0.372	72.7	56.2	inactive
42	MTMR9	SID164506265	-0.228	77	65.8	inactive
43	MTMR9	SID164506268	-0.416	110	82.5	inactive
44	MTMR9	SID164506270	-0.284	61.9	50.8	inactive
45	MTMR9	SID164506272	-0.332	56.1	44.6	inactive
46	NAGA	SID164377046	-0.053	90.7	87.4	inactive
47	NAGA	SID164377047	0.175	69.7	78.7	inactive
48	NAGA	SID164377053	-0.222	81.5	69.9	inactive
49	PTPMT1	SID164562243	-0.0936	22.5	21.1	inactive
50	PTPMT1	SID164562245	0.353	55.5	70.9	inactive
51	PTPMT1	SID164562247	-0.505	91.4	64.4	inactive
52	PTPMT1	SID164562251	-0.232	6.84	5.83	inactive
53	CXCL6	SID164387404	0.0517	93.9	97.3	inactive
54	CXCL6	SID164387405	0.249	49.2	58.5	inactive
55	CXCL6	SID164387407	-0.255	92	77.1	inactive
56	CXCL6	SID164387408	-0.173	107	94.7	inactive
57	HERC6	SID164482130	-0.0416	90.6	88	inactive
58	HERC6	SID164482132	-0.445	48.1	35.4	inactive
59	HERC6	SID164482133	-0.0728	83.6	79.5	inactive
60	HERC6	SID164482134	-0.441	71.2	52.4	inactive
61	SERPINB3	SID164387052	-0.372	59.8	46.2	inactive
62	SERPINB3	SID164387053	-0.138	76.2	69.2	inactive
63	SERPINB3	SID164387054	-0.351	26.3	20.6	inactive
64	SERPINB3	SID164387056	-0.256	87.2	73	inactive
65	EED	SID164399472	-0.41	111	83.5	inactive
66	EED	SID164399473	-0.224	49.2	42.1	inactive
67	EED	SID164399475	0.0554	75.2	78.1	inactive
68	EED	SID164399479	-0.0725	78.3	74.4	inactive
